Values are relative to the signal before dosing, not to a vehicle control; the signal also falls without drug.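 Fibroblast labels name human fibroblasts: mostly primary ones from tissues such as uterus (C12385, HUF), lung (H6013), bone (Hs27A), adrenal (HADF) and skin (WS1), plus mammary HMF and breast cancer-associated Hs343T. The cancer cells are basal-like or mesenchymal-like triple-negative breast cancer lines. The paper calls a changed response a hit when it shifts by more than 3x the replicate standard deviation. The tissue of the other fibroblasts is not given here.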
System: MDAMB436
Assay: relative JC-1 red fluorescence (viability) vs pre-drug, coculture with fibroblast (fraction); higher = more viable cancer cells
Description: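 JC-1 labelled TNBC cells cocultured 1:1 (1,500 cells each) with CellTrace Violet stained primary or stromal fibroblasts in 384-well plates in FluoroBrite medium, treated with one of 42 anticancer drugs at 0.1, 1, 10 or 100 uM. JC-1 red fluorescence (mitochondrial integrity in cancer cells only) was read by plate reader every 8 h for 72 h. Values are normalised to each well's pre-drug value. The stock of one drug was tenfold lower, so its dose labels may be too high.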

CCCCCOC(=O)Nc1nc(=O)n([C@@H]2O[C@H](C)[C@@H](O)[C@H]2O)cc1F [Capecitabine]
relative JC-1 red fluorescence
Settings	8 h	16 h	24 h	32 h	40 h	48 h	56 h	64 h	72 h
0.1 µM, coculture fibroblast: C12385	0.739	0.6725	0.627	0.526	0.476	0.448	0.426	0.406	0.403
0.1 µM, coculture fibroblast: H6013	0.816	0.756	0.735	0.719	0.701	0.721	0.676	0.659	0.613
0.1 µM, coculture fibroblast: H6019	0.7133	0.645	0.608	0.521	0.487	0.467	0.435	0.411	0.385
0.1 µM, coculture fibroblast: H6076	0.717	0.653	0.639	0.595	0.584	0.558	0.572	0.569	0.552
0.1 µM, coculture fibroblast: H6231	0.779	0.684	0.698	0.603	0.585	0.553	0.534	0.515	0.49
0.1 µM, coculture fibroblast: HADF	0.814	0.772	0.766	0.741	0.743	0.781	0.716	0.712	0.676
0.1 µM, coculture fibroblast: HCFa	0.764	0.705	0.678	0.636	0.611	0.622	0.551	0.542	0.479
0.1 µM, coculture fibroblast: HCPF	0.734	0.663	0.671	0.607	0.603	0.561	0.549	0.532	0.514
0.1 µM, coculture fibroblast: HHSteC	0.79	0.767	0.734	0.702	0.688	0.695	0.632	0.617	0.558
0.1 µM, coculture fibroblast: HMF	0.733	0.674	0.669	0.617	0.61	0.578	0.58	0.558	0.558
0.1 µM, coculture fibroblast: HPFa	0.8801	0.79701	0.763	0.71	0.684	0.69	0.61	0.579	0.505
0.1 µM, coculture fibroblast: HUF	0.836	0.702	0.6638	0.5871	0.527	0.501	0.479	0.469	0.4563
0.1 µM, coculture fibroblast: Hs5	0.73	0.69	0.675	0.622	0.603	0.568	0.568	0.536	0.533
0.1 µM, coculture fibroblast: Hs27A	0.817	0.729	0.717	0.683	0.647	0.703	0.602	0.58	0.503
0.1 µM, coculture fibroblast: Hs343T	0.743	0.667	0.622	0.569	0.541	0.503	0.493	0.48	0.476
0.1 µM, coculture fibroblast: WS1	0.757	0.682	0.63	0.544	0.487	0.453	0.422	0.3923	0.374
1 µM, coculture fibroblast: C12385	0.8378	0.6909	0.677	0.603	0.561	0.543	0.528	0.514	0.511
1 µM, coculture fibroblast: H6013	0.8424	0.739	0.7203	0.719	0.7034	0.73561	0.694	0.685	0.641
1 µM, coculture fibroblast: H6019	0.71	0.63	0.601	0.52	0.476	0.464	0.431	0.403	0.37
1 µM, coculture fibroblast: H6076	0.737	0.6095	0.638	0.6133	0.606	0.599	0.616	0.618	0.617
1 µM, coculture fibroblast: H6231	0.753	0.673	0.67	0.601	0.58	0.55	0.529	0.51	0.486
1 µM, coculture fibroblast: HADF	0.891	0.752	0.7	0.684	0.738	0.728	0.763	0.682	0.699
1 µM, coculture fibroblast: HCFa	0.784	0.675	0.653	0.614	0.583	0.602	0.541	0.525	0.468
1 µM, coculture fibroblast: HCPF	0.748	0.663	0.662	0.614	0.599	0.576	0.56	0.557	0.543
1 µM, coculture fibroblast: HHSteC	0.898	0.838	0.844	0.82	0.82	0.8236	0.7633	0.7353	0.6845
1 µM, coculture fibroblast: HMF	0.7606	0.629	0.627	0.588	0.574	0.54	0.543	0.527	0.519
1 µM, coculture fibroblast: HPFa	0.906	0.869	0.87	0.852	0.858	0.817	0.808	0.786	0.712
1 µM, coculture fibroblast: HUF	0.858	0.738	0.718	0.647	0.59	0.571	0.539	0.523	0.51
1 µM, coculture fibroblast: Hs5	0.761	0.6517	0.6621	0.6193	0.6096	0.5761	0.592	0.569	0.56324
1 µM, coculture fibroblast: Hs27A	0.822	0.762	0.722	0.703	0.683	0.749	0.661	0.636	0.559
1 µM, coculture fibroblast: Hs343T	0.772	0.631	0.626	0.594	0.575	0.545	0.538	0.523	0.527
1 µM, coculture fibroblast: WS1	0.774	0.6704	0.6537	0.5827	0.5368	0.519	0.495	0.47	0.456

Source: the supplement of paper PMC6078165
